Results published in PMC9077873.
No constants are given. Whether binding was seen depends on the method and setting. In cells and extracts the contact can be indirect. Binding calls can cover weak binding; strength is not graded here.

Protein sequences, listed by entry. Tags and fused reporters are not part of them. Lines headed by an entry give the natural chain unless they say otherwise; changes in a name come on top.
UniProt Q8K4Z3: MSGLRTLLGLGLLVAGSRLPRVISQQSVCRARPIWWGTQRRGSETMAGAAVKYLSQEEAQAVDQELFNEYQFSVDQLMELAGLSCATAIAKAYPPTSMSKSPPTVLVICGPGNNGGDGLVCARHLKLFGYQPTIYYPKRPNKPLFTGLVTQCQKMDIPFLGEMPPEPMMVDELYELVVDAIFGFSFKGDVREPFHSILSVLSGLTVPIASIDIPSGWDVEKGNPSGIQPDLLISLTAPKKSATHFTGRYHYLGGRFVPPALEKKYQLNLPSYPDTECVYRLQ

Molecular target: Apolipoprotein A-I binding protein, FLAG-tagged (AIBP-FLAG) (UniProt Q8K4Z3)
Assay: co-IP; 293 T cells transfected with AIBP-FLAG/AIBP(ΔMLS)-Flag; lysis in 150 mM NaCl, 25 mM HEPES, 0.2% NP40, 10% glycerol, 1 mM DTT; anti-FLAG or anti-HA antibody 6 h at 4 °C, Protein G Sepharose overnight; Western blot

B1: Mitochondrial inner membrane transporter TIM23 (protein, UniProt O14925 1-209)
chain: MEGGGGSGNKTTGGLAGFFGAGGAGYSHADLAGVPLTGMNPLSPYLNVDPRYLVQDTDEFILPTGANKTRGRFELAFFTIGGCCMTGAAFGAMNGLRLGLKETQNMAWSKPRNVQILNMVTRQGALWANTLGSLALLYSAFGVIIEKTRGAEDDLNTVAAGTMTGMLYKCTGGLRGIARGGLTGLTLTSLYALYNNWEHMKGSLLQQSL
**Q.** For B1, which binding is on record?
**A.** binds
